# In PMC5562876, “The integration of Gβ and MAPK signaling cascade in zygote development” (Scientific Reports, 2017):
# Amino acid sequences for entries named in this document (tags omitted).
# UniProt Q39026: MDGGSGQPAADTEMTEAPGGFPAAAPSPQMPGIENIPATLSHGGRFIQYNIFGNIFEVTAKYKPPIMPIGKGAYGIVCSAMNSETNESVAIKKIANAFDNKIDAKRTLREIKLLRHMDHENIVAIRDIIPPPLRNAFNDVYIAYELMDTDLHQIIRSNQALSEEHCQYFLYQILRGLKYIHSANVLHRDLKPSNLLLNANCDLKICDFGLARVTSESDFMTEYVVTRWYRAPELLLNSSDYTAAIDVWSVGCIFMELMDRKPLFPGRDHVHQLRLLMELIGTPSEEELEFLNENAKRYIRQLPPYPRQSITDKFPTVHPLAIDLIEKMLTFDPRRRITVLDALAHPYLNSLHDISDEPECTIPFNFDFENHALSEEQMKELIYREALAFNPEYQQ
# These are yes or no findings as the source states them, for the method shown. For some of these results: In cells and extracts the contact can be indirect. Some results given as binding are weak or reduced against the parent protein; the word gives no strength. For some of these results: Where a sequence is shown, tags or fusion partners need not be part of it.
# T1: CFP^C-MKK5 (Arabidopsis thaliana) (UniProt Q8RXG3)
# T1 sequence: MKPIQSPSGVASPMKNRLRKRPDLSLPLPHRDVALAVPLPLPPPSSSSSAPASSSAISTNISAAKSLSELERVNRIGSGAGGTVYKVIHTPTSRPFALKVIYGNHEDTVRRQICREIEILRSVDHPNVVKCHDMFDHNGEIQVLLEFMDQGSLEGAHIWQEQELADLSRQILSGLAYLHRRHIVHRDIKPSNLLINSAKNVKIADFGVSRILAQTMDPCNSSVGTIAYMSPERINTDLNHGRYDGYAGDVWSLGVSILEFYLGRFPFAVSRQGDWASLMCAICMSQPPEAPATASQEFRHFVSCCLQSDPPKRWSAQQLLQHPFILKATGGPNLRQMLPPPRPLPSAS
# T2: kinase domain of YODA (purified, pull-down) (Arabidopsis thaliana) (UniProt Q9CAD5)
# T2 sequence: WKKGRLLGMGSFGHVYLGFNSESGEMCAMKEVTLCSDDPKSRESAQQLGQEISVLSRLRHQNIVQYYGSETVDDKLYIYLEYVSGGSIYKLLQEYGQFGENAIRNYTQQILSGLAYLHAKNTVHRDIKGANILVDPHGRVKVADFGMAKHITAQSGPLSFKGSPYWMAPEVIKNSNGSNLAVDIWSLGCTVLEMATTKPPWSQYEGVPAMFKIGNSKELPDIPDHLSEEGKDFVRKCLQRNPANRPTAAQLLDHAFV
# Key:
# [1] = molecular target: CFP^N-MPK6 (Arabidopsis thaliana) (UniProt Q39026); experiment: split reporter; BiFC with CFP^N and CFP^C fusions (pSPYNE, pSPYCE) agroinfiltrated into N. benthamiana leaves, 3 days at 22 °C, confocal microscopy
# [2] = molecular target: T1, CFP^C-MKK5 (Arabidopsis thaliana); experiment: as above
# [3] = molecular target: T2, kinase domain of YODA (purified, pull-down) (Arabidopsis thaliana); experiment: pull-down; purified fusion proteins from E. coli incubated with glutathione agarose beads, 25 mM Tris-HCl pH 7.5, 100 mM NaCl, 1 mM DTT, 1 hr; seven washes with 0.1% Triton X-100; eluted with 15 mM GSH; immunoblot; both purified
Binder,binding [3],other results
"CFP^C-AGB1 (protein, UniProt P49177 1-377) MSVSELKERHAVATETVNNLRDQLRQRRLQLLDTDVARYSAAQGRTRVSFGATDLVCCRTLQGHTGKVYSLDWTPERNRIVSASQDGRLIVWNALTSQKTHAIKLPCAWVMTCAFSPNGQSVACGGLDSVCSIFSLSSTADKDGTVPVSRMLTGHRGYVSCCQYVPNEDAHLITSSGDQTCILWDVTTGLKTSVFGGEFQSGHTADVLSVSISGSNPNWFISGSCDSTARLWDTRAASRAVRTFHGHEGDVNTVKFFPDGYRFGTGSDDGTCRLYDIRTGHQLQVYQPHGDGENGPVTSIAFSVSGRLLFAGYASNNTCYVWDTLLGEVVLDLGLQQDSHRNRISCLGLSADGSALCTGSWDSNLKIWAFGGHRRVI",–,binding [1]: binds
"CFP^N-AGB1 (protein, UniProt P49177 1-377) MSVSELKERHAVATETVNNLRDQLRQRRLQLLDTDVARYSAAQGRTRVSFGATDLVCCRTLQGHTGKVYSLDWTPERNRIVSASQDGRLIVWNALTSQKTHAIKLPCAWVMTCAFSPNGQSVACGGLDSVCSIFSLSSTADKDGTVPVSRMLTGHRGYVSCCQYVPNEDAHLITSSGDQTCILWDVTTGLKTSVFGGEFQSGHTADVLSVSISGSNPNWFISGSCDSTARLWDTRAASRAVRTFHGHEGDVNTVKFFPDGYRFGTGSDDGTCRLYDIRTGHQLQVYQPHGDGENGPVTSIAFSVSGRLLFAGYASNNTCYVWDTLLGEVVLDLGLQQDSHRNRISCLGLSADGSALCTGSWDSNLKIWAFGGHRRVI",–,binding [2]: binds

# Now from value to binder, other results behind:
binding [3],Binder,other results
no binding,"AGB1 (purified, pull-down) (natural protein, Arabidopsis thaliana, UniProt P49177 1-377, looked up, AGB1, G protein beta subunit, Arabidopsis thaliana, At4G34460; source: E. coli, purified (glutathione agarose beads)) MSVSELKERHAVATETVNNLRDQLRQRRLQLLDTDVARYSAAQGRTRVSFGATDLVCCRTLQGHTGKVYSLDWTPERNRIVSASQDGRLIVWNALTSQKTHAIKLPCAWVMTCAFSPNGQSVACGGLDSVCSIFSLSSTADKDGTVPVSRMLTGHRGYVSCCQYVPNEDAHLITSSGDQTCILWDVTTGLKTSVFGGEFQSGHTADVLSVSISGSNPNWFISGSCDSTARLWDTRAASRAVRTFHGHEGDVNTVKFFPDGYRFGTGSDDGTCRLYDIRTGHQLQVYQPHGDGENGPVTSIAFSVSGRLLFAGYASNNTCYVWDTLLGEVVLDLGLQQDSHRNRISCLGLSADGSALCTGSWDSNLKIWAFGGHRRVI",–
no binding,"SSP (purified, pull-down) (protein, UniProt Q7XJT7 1-465) MGCCYSLSSTVDPVQDHTTDASSEPRNGGGEDPPLTKFSFSALKTATNHFSPENIVSDQTSDVVFKGRLQNGGFVAIKRFNNMAWSDPKLFLEEAQRVGKLRHKRLVNLIGYCCDGDKRFLVADFMANDTLAKRLFQRKYQTMDWSIRLRVAYFVAEALDYCNTAGFASYNNLSAYKVLFDEDGDACLSCFGLMKEINNDQITTGSVNPENVIYRFGTVLVNLLSGKQIPPSHAPEMIHRKNVFKLMDPYLKGKFSIDEANVVYKLASQCLKYEGQESPNTKEIVATLETLQTRTEAPSYEVVEMTNQEKDASSSSNLSPLGEACLRMDLASIHSILVLAGYDDDKDIIELSFEEWIQEVKELQDVRRNGDRAFVEQDFKTAIACYSQFVEERSLVYPSVYARRSLSYLFCDEPEKALLDGMHAQGVFPDWPTAFYLQSVALAKLDMNTDSADTLKEAALLEVKK",–
